Laboratory results reported in publication PMC6639074.
These are yes or no findings as the source states them, for the method shown. Binding seen in cells or lysates may run through a third protein. A yes stands for co-enrichment or nearness to the bait. Other partners may have been found. For some of these results: Sequences can lack the tags named with a protein.

Amino acid sequences for entries named in this document (tags omitted). A change or cut given only in a name is not applied to a line headed by its entry. Chains listed by the source or under a name are the forms on record and can include a tag or linker.
Rab5A(S34N)-BirA*-HA-MAO (P20339, form named): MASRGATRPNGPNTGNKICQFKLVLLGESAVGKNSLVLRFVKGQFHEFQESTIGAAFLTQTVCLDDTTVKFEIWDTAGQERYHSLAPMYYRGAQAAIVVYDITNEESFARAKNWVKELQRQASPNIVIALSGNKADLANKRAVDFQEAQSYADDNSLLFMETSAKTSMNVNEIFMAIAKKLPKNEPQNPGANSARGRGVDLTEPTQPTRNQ
Rab5A(Q79L)-BirA*-HA-MAO (P20339, form named): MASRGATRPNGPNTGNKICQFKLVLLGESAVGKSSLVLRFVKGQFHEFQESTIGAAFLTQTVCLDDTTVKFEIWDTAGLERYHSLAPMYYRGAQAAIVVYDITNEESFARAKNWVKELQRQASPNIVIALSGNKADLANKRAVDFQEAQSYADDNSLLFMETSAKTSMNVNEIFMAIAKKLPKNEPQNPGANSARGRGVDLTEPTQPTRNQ
UniProt P61019: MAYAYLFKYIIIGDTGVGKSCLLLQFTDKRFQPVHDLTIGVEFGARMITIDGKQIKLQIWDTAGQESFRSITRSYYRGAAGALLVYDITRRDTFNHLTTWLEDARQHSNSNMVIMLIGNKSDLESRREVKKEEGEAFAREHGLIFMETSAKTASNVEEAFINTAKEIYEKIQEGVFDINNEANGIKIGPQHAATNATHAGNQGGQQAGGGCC
UniProt P61586: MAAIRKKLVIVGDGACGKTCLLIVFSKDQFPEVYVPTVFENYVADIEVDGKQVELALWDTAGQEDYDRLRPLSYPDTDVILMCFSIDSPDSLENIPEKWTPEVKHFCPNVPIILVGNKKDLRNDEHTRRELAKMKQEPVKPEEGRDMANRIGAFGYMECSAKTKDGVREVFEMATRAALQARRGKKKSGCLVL
Cdc42(G12V)-BirA*-HA-MAO (P60953, form named): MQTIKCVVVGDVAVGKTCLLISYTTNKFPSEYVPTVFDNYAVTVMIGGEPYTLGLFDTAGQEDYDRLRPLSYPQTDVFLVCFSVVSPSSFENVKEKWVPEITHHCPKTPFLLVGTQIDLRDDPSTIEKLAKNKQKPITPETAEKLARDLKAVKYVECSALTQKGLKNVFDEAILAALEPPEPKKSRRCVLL
Cdc42(T17N)-BirA*-HA-MAO (P60953, form named): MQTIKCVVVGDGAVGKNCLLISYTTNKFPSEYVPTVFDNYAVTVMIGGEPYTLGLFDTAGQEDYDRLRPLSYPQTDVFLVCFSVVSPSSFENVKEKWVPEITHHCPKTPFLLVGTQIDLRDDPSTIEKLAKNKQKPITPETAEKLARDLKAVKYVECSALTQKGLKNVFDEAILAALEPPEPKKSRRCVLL
UniProt P20340: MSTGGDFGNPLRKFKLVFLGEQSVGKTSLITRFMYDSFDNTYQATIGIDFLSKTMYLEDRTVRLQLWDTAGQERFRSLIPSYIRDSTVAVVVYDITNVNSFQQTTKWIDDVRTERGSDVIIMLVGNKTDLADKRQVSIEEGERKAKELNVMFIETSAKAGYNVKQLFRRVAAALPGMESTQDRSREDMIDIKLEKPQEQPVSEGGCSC
UniProt P61026: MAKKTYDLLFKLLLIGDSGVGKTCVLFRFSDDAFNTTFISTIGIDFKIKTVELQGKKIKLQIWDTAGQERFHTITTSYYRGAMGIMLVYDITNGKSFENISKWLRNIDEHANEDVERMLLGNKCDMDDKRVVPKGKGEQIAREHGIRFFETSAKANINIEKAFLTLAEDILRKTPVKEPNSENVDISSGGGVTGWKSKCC
UniProt P61006: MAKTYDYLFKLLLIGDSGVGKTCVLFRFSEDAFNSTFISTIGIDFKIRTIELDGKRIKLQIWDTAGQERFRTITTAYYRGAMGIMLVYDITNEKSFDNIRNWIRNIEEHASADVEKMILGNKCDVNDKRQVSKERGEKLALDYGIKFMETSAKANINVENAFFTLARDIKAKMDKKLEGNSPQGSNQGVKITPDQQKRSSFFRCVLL
UniProt Q9NP72: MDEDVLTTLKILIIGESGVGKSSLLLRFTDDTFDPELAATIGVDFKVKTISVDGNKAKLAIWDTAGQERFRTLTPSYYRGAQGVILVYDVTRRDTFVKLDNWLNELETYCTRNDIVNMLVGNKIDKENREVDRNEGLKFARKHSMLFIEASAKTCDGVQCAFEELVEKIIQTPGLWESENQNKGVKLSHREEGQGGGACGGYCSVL
UniProt Q15075: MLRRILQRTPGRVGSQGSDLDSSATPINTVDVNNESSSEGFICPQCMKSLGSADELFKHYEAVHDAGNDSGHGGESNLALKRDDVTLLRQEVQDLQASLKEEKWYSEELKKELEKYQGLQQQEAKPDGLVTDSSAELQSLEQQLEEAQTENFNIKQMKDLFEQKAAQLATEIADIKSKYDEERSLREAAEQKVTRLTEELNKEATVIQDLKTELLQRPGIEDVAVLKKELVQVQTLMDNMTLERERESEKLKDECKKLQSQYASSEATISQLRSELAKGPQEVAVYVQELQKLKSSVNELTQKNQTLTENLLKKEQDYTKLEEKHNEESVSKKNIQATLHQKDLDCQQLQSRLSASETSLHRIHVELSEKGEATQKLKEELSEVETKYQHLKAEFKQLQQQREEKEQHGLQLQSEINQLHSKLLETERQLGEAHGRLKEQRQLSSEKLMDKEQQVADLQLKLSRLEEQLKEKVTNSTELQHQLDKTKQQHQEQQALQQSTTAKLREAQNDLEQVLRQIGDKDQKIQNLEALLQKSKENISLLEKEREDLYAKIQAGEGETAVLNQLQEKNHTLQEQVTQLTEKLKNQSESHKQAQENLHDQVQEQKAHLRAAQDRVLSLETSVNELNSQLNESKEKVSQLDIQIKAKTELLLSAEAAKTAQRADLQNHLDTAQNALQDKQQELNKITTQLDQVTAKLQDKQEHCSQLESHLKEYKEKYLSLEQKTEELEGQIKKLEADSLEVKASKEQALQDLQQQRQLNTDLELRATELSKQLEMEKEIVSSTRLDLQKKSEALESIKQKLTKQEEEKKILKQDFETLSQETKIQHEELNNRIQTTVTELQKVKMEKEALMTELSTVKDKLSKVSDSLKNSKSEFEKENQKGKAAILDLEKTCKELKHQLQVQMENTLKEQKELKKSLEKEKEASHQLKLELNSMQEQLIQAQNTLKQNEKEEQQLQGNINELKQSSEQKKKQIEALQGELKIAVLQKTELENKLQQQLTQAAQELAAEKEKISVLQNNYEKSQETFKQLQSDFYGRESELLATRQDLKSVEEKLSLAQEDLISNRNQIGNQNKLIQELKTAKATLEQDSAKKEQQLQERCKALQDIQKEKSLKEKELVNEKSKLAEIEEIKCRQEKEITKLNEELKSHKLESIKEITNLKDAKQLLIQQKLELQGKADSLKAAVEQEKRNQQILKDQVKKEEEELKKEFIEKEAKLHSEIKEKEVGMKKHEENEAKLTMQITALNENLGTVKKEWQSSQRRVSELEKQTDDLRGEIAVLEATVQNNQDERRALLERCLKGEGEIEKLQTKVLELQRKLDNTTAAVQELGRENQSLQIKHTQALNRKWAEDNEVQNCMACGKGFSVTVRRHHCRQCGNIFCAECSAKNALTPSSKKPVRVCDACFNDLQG
UniProt Q2PPJ7: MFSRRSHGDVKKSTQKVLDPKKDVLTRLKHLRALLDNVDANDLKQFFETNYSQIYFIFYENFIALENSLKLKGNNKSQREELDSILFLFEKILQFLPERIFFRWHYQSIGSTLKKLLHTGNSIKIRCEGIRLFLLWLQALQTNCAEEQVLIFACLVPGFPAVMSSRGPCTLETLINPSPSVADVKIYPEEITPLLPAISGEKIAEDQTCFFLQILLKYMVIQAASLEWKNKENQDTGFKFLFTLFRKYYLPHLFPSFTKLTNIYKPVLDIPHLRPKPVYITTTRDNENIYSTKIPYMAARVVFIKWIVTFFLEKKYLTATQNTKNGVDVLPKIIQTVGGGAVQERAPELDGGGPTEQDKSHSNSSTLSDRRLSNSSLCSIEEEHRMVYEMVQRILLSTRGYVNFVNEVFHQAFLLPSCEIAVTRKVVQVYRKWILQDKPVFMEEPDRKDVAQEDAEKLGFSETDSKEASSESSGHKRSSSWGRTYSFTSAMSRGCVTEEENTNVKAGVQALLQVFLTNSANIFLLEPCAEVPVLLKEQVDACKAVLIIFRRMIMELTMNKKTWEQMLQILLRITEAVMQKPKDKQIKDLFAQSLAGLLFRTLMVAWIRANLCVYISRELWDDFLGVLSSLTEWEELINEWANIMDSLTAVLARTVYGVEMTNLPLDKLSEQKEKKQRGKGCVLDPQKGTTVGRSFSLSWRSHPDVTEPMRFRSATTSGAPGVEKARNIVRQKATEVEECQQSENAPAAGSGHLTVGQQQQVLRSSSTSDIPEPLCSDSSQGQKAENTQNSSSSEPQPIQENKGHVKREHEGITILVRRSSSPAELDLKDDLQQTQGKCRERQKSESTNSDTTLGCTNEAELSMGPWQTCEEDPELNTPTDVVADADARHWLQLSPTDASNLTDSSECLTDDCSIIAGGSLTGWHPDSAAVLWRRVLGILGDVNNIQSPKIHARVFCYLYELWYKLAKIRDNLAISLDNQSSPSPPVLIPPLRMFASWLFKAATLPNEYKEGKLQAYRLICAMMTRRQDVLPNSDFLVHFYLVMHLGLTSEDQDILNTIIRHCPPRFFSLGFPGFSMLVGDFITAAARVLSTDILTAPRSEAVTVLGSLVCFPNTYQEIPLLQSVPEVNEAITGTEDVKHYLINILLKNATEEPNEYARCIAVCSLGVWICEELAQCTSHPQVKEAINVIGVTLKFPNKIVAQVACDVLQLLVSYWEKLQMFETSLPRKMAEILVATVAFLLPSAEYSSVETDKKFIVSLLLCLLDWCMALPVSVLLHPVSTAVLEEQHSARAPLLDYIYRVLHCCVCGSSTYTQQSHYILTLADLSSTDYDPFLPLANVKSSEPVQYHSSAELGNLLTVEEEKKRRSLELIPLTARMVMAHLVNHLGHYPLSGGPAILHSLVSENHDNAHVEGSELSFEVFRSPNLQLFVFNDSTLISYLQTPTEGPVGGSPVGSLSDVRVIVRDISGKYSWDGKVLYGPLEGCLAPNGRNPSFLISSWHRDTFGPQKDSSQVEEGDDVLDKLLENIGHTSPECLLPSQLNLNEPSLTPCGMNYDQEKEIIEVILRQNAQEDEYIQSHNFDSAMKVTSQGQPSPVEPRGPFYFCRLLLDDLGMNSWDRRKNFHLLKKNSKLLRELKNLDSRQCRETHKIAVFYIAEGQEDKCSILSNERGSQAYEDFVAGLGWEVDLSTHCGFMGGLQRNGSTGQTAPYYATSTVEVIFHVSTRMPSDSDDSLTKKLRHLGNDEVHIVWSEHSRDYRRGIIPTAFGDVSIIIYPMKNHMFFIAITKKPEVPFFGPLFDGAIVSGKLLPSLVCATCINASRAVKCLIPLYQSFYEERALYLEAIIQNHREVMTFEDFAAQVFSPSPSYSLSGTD
UniProt Q9UJ41: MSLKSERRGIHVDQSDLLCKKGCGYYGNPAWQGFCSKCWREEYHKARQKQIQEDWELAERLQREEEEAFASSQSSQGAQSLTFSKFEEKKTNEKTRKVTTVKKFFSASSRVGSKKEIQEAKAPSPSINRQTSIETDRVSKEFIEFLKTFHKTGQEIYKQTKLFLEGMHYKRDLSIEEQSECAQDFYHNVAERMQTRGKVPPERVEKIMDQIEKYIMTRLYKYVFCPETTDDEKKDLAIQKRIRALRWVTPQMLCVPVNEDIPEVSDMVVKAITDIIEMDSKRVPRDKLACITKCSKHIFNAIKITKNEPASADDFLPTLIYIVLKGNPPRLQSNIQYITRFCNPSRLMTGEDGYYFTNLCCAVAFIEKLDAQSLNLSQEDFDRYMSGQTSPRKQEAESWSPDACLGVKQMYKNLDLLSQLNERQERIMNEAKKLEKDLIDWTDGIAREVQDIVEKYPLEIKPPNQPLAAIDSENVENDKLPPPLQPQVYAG
UniProt Q92609: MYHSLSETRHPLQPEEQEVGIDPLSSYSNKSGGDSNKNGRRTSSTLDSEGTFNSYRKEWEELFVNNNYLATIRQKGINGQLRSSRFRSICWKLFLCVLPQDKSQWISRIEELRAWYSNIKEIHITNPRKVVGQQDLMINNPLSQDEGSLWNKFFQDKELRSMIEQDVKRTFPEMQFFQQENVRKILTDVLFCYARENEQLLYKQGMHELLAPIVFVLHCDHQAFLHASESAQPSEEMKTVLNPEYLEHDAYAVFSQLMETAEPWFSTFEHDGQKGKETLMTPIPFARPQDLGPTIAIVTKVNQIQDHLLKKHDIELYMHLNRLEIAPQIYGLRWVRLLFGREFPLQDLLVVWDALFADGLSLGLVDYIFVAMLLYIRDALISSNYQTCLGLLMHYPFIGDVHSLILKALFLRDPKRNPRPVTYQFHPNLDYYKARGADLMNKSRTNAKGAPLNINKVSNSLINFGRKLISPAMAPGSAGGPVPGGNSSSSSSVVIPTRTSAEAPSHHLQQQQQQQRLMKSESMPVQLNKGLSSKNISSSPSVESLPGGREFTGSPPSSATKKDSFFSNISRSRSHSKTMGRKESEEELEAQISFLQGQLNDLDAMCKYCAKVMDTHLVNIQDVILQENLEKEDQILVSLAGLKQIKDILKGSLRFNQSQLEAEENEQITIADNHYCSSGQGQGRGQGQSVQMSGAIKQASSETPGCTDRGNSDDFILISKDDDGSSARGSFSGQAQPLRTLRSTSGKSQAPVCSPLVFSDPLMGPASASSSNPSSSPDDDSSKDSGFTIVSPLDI

Columns and labels:
[1] = target: Rab5A(S34N)-BirA*-HA-MAO (human) (UniProt P20339); assay: proximity labelling; MitoID: GTPase-BirA*-HA-MAO chimera on mitochondria of transiently transfected HEK293T cells, 50 uM biotin 18 h, streptavidin beads, mass spectrometry, biological triplicates; hits by WD scores and volcano plots against the GDP-locked forms
[2] = target: Rab2A(Q65L)-BirA*-HA-MAO (human) (UniProt P61019); assay: as above
[3] = target: RhoA(Q63L)-BirA*-HA-MAO (human) (UniProt P61586); assay: as above
[4] = target: Cdc42(G12V)-BirA*-HA-MAO (human) (UniProt P60953); assay: as above
[5] = target: Cdc42(T17N)-BirA*-HA-MAO (human) (UniProt P60953); assay: as above
[6] = target: Rab5A(Q79L)-BirA*-HA-MAO (human) (UniProt P20339); assay: as above
[7] = target: Rab5A(Q79L)-BirA*-HA-MAO (human) (UniProt P20339); assay: proximity labelling; MitoID with versions of Rab5A(Q79L), streptavidin precipitates immunoblotted for Rab5 effectors
[8] = target: Rab5A(Q79L) with Ser84 mutated to alanine, BirA*-HA-MAO chimera (human) (UniProt P20339); assay: as above
[9] = target: Rab5A(Q79L) with Ser84 mutated to glutamate, BirA*-HA-MAO chimera (human) (UniProt P20339); assay: as above
[10] = target: Rab6A(Q72L)-BirA*-HA-MAO (human) (UniProt P20340); assay: proximity labelling; MitoID: GTPase-BirA*-HA-MAO chimera on mitochondria of transiently transfected HEK293T cells, 50 uM biotin 18 h, streptavidin beads, mass spectrometry, biological triplicates; hits by WD scores and volcano plots against the GDP-locked forms
[11] = target: T1, RalB(G23V)-BirA*-HA-MAO (human) (UniProt P11234); assay: as above
T1 sequence: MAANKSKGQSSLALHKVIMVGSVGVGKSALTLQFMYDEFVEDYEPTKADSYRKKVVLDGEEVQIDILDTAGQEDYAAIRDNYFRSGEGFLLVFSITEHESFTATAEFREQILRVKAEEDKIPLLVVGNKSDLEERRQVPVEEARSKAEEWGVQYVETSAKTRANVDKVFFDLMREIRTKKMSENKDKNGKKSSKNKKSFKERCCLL

[12] = target: Rab10(Q68L)-BirA*-HA-MAO (human) (UniProt P61026); assay: as above
[13] = target: Rab33B(Q92L)-BirA*-HA-MAO (human) (UniProt Q9H082); assay: as above
[14] = target: T2, Rab9A(Q66L)-BirA*-HA-MAO (human) (UniProt P51151); assay: as above
T2 sequence: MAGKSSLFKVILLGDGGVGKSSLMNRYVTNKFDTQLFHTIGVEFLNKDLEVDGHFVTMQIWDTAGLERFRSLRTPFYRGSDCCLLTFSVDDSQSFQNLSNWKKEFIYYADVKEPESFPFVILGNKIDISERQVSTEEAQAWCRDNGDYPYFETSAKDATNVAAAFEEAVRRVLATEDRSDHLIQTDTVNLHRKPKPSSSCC

[15] = target: Rab8A(Q67L)-BirA*-HA-MAO (human) (UniProt P61006); assay: as above
[16] = target: Rab18(Q67L)-BirA*-HA-MAO (human) (UniProt Q9NP72); assay: as above
[17] = target: T3, Rab30(Q68L)-BirA*-HA-MAO (human) (UniProt Q15771); assay: as above
T3 sequence: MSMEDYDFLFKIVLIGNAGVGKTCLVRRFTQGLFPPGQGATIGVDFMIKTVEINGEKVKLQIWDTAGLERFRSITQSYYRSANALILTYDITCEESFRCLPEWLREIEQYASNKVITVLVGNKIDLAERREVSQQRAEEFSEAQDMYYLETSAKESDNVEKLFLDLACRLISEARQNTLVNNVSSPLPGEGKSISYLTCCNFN

[18] = target: N-Ras(G12D)-BirA*-HA-MAO (human) (UniProt P01111); assay: as above

How did the binding [1] turn out when ALS2/alsin (from UniProt Q96Q42 1-1657) was run?
Its binding is “binds”.

For ARFGEF3 (from UniProt Q5TH69 1-2177), which binding [2] is on record?
The binding was “binds”.

With ARHGAP5 (from UniProt Q13017 1-1502) as the substance, how does the binding [3] read?
The binding was “binds”.

How did the binding [4] turn out when ARHGAP31 (from UniProt Q2M1Z3 1-1444) was run?
Its binding is “binds”.

Which binding [4] does the source give for “ARHGAP32/p250GAP (from UniProt A7KAX9 1-2087)” here?
Its binding is “binds”.

And the binding [5]?
Its binding is “binds”.

Which binding [4] does the source give for “ARHGEF11/PDX-RhoGEF (from UniProt O15085 1-1522)” here?
Its binding is “binds”.

Which binding [4] does the source give for “ARHGEF12/LARG (from UniProt Q9NZN5 1-1544)” here?
The binding was “binds”.

“ARHGEF40/Solo (from UniProt Q8TER5 1-1519)” was tested. Which binding [4] did it give?
The binding was “binds”.

How did the binding [2] turn out when “CCDC186/CCCP-1 (from UniProt Q7Z3E2 1-898)” was run?
The binding was “binds”.

Which binding [3] does the source give for CIT/Citron (from UniProt O14578 1-2027) here?
The binding was “binds”.

Which binding [5] does the source give for DOCK7 (from UniProt Q96N67 1-2140) here?
The binding was “binds”.

How did the binding [5] turn out when DOCK9 (from UniProt Q9BZ29 1-2069) was run?
Its binding is “binds”.

Which binding [5] does the source give for DOCK11 (from UniProt Q5JSL3 1-2073) here?
The binding was “binds”.

With EEA1 (from UniProt Q15075 1-1411) as the substance, how does the binding [6] read?
The binding was “binds”.

What about the binding [7] of the same substance?
Its binding is “binds”.

And the binding [8]?
Its binding is “binds”.

What about the binding [9] of the same substance?
The binding was “binds”.

For ERC1 (from UniProt Q8IUD2 1-1116), which binding [10] is on record?
Its binding is “binds”.

With EXOC2/Sec5 (from UniProt Q96KP1 1-924) as the substance, how does the binding [11] read?
The binding was “binds”.

For EXOC6 (from UniProt Q8TAG9 1-804), which binding [12] is on record?
Its binding is “binds”.

Which binding [1] does the source give for FAM135A (from UniProt Q9P2D6 1-1515) here?
Its binding is “binds”.

For GBF1 (from UniProt Q92538 1-1860), which binding [2] is on record?
The binding was “binds”.

What does the source list for “GCC2/golgin-185 (from UniProt Q8IWJ2 1-1684)”?
binding [13]: binds; binding [14]: binds

With Huntingtin (from UniProt P42858 1-3142) as the substance, how does the binding [6] read?
The binding was “binds”.

How did the binding [2] turn out when INPP5B (from UniProt P32019 1-993) was run?
Its binding is “binds”.

For KCTD3 (from UniProt Q9Y597 1-815), which binding [4] is on record?
The binding was “binds”.

KIF3A (from UniProt Q9Y496 1-699) was tested. Which binding [12] did it give?
The binding was “binds”.

For MAP4K3 (from UniProt Q8IVH8 1-894), which binding [12] is on record?
The binding was “binds”.

What about the binding [15] of the same substance?
Its binding is “binds”.

Which results are given for MAP4K5 (from UniProt Q9Y4K4 1-846)?
binding [12]: binds; binding [15]: binds

For MICAL3 (from UniProt Q7RTP6 1-2002), which binding [12] is on record?
The binding was “binds”.

What about the binding [15] of the same substance?
Its binding is “binds”.

How did the binding [14] turn out when MICALL1 (from UniProt Q8N3F8 1-863) was run?
Its binding is “binds”.

How did the binding [15] turn out when MYO5A (from UniProt Q9Y4I1 1-1855) was run?
The binding was “binds”.

MYO5C (from UniProt Q9NQX4 1-1742) was tested. Which binding [12] did it give?
Its binding is “binds”.

For NAG/NBAS (from UniProt A2RRP1 1-2371), which binding [16] is on record?
Its binding is “binds”.

Which binding [12] does the source give for OCRL (from UniProt Q01968 1-901) here?
Its binding is “binds”.

What about the binding [15] of the same substance?
Its binding is “binds”.

For “PDE4DIP/myomegalin (from UniProt Q5VU43 1-2346)”, which binding [10] is on record?
Its binding is “binds”.

PHLDB3 (from UniProt Q6NSJ2 1-640) was tested. Which binding [17] did it give?
The binding was “binds”.

For PICK1 (from UniProt Q9NRD5 1-415), which binding [2] is on record?
The binding was “binds”.

With RABGAP1 (from UniProt Q9Y3P9 1-1069) as the substance, how does the binding [10] read?
Its binding is “binds”.

How did the binding [10] turn out when RABGAP1L (from UniProt Q5R372 1-815) was run?
The binding was “binds”.

How did the binding [11] turn out when RALGAPA1 (from UniProt Q6GYQ0 1-2036) was run?
Its binding is “binds”.

With RALGAPA2 (from UniProt Q2PPJ7 1-1873) as the substance, how does the binding [11] read?
The binding was “binds”.

RAPGEF6 (from UniProt Q8TEU7 1-1601) was tested. Which binding [18] did it give?
Its binding is “binds”.

With RTKN (from UniProt Q9BST9 1-563) as the substance, how does the binding [3] read?
Its binding is “binds”.

RUFY1 (from UniProt Q96T51 1-708) was tested. Which binding [2] did it give?
Its binding is “binds”.

Which results are given for Rabex-5 (from UniProt Q9UJ41 1-491)?
binding [13]: binds; binding [6]: binds; binding [1]: binds

With SHKBP1 (from UniProt Q8TBC3 1-707) as the substance, how does the binding [4] read?
The binding was “binds”.

TBC1D5 (from UniProt Q92609 1-795) was tested. Which binding [16] did it give?
The binding was “binds”.

Which binding [6] does the source give for “WDR7/Rabconnectin-3β (from UniProt Q9Y4E6 1-1490)” here?
Its binding is “binds”.

“p150/glued subunit of dynactin (DCNT1) (from UniProt Q14203 1-1278)” was tested. Which binding [10] did it give?
The binding was “binds”.
